Data published in US20250121104A1 (FUSION PHARMACEUTICALS, published 2025).
Results are given in words; binding and its absence hold for the method and conditions named. Some binding calls cover weakened binding; strength is not graded here.

Sequences of proteins named here, by UniProt entry; tags and fusion partners are left off. A change or cut given only in a name is not applied to a line headed by its entry.
UniProt P08581: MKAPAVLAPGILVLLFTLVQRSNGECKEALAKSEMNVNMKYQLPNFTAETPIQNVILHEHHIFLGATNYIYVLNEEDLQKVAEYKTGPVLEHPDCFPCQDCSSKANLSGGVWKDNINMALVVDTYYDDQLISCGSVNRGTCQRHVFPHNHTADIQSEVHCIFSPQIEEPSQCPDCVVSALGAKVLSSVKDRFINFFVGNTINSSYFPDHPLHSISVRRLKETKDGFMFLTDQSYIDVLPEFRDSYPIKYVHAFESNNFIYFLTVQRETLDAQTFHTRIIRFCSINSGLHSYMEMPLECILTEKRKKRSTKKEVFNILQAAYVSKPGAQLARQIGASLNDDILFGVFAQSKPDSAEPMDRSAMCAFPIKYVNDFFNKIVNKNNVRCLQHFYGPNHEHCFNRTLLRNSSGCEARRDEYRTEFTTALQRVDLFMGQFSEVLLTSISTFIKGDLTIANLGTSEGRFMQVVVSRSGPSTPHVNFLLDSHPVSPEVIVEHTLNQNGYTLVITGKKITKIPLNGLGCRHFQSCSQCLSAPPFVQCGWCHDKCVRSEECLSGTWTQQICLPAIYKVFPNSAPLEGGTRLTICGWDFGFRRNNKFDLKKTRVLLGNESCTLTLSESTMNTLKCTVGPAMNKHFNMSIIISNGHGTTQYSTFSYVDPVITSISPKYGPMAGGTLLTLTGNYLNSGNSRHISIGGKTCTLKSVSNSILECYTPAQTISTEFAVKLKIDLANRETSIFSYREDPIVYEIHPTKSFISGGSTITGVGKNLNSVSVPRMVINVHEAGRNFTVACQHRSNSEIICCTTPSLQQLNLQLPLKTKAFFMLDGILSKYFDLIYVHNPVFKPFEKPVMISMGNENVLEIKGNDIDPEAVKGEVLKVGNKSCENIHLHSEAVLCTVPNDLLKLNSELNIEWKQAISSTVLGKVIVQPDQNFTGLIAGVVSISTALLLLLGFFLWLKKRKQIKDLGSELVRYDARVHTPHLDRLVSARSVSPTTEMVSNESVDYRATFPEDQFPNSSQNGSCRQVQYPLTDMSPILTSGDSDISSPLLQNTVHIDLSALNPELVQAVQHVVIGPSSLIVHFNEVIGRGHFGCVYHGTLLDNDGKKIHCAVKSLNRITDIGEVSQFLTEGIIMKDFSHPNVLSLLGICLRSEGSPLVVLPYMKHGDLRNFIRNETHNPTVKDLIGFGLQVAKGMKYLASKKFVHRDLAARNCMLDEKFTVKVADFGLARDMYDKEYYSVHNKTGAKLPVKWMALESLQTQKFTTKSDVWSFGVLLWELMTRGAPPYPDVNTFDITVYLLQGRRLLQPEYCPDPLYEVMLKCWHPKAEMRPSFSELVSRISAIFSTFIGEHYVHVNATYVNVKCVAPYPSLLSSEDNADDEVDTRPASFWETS

Tests used:
[1] = target: human EGFR (recombinant, soluble monomeric) (human) (UniProt P00533); assay: BLI (Octet384), His-tagged human cMET on Ni-NTA sensors, then 66 nM antibody, then 500 nM human EGFR
[2] = target: human cMET (recombinant, soluble monomeric) (human) (UniProt P08581); assay: as above
[3] = target: human EGFR (recombinant, soluble monomeric) (human) (UniProt P00533); assay: ELISA (legend of FIG. 3A)
[4] = target: human cMET (recombinant, soluble monomeric) (human) (UniProt P08581); assay: ELISA (legend of FIG. 3A)
[5] = target: T1, mouse EGFR (recombinant) (mouse, UniProt Q01279 25-647); assay: ELISA (legend of FIG. 3A)
T1 construct: also called murine EGFR

[6] = target: cynomolgus monkey EGFR (recombinant, soluble monomeric) (cynomolgus monkey); assay: ELISA (legend of FIG. 3A)
[7] = target: cynomolgus monkey cMET (recombinant, soluble monomeric) (cynomolgus monkey); assay: ELISA (legend of FIG. 3A)
[8] = target: human EGFR (recombinant, soluble monomeric) (human) (UniProt P00533); assay: ELISA, antigen coated at 1 µg/mL, antibody titrated from 10 µg/mL, anti-human Fab-HRP
[9] = target: human cMET (recombinant, soluble monomeric) (human) (UniProt P08581); assay: as above
[10] = target: T1, mouse EGFR (recombinant); assay: as above
[11] = target: cynomolgus monkey EGFR (recombinant, soluble monomeric) (cynomolgus monkey); assay: as above
[12] = target: cynomolgus monkey cMET (recombinant, soluble monomeric) (cynomolgus monkey); assay: as above
[13] = target: EGFR and cMET co-expressed on the surface of tumour cell lines (HCC827, HT29, H441, H1975) (UniProt P00533); assay: live cell confocal fluorescence microscopy, AlexaFluor647-labelled antibody pre-bound to H1975 cells

Measured: binding

B1: QD6/B09-57 DuetMab (bispecific antibody, V domains shown)
VH 1: QVQLVQSGAEVKKPGSSVKVSCKASGGTFSDNDFSWVRQAPGQGLEWMGAIVAVVRTETYAQKFQDRVKITADISTRTTYMELSSLRSEDTAVYYCARRLMSAISGPGAPLLMWGQGTLVTVSS
VL 1: QSALTQPRSVSGSPGQSVTISCTGTSSDVGGYNYVSWYQQHPGKAPKLMIYDVSERPSGVPDRFSGSKSGNTASLTISGLQAEDEADYYCFSYTSSDTLEIFGGGTKLTVL
VH 2: QVQLVQSGAEVKKPGASVKVSCKASGYTFTDYYIHWVRQATGQGLEWMGWMNPNSGNTGYAQKFQGRVTMTRDTSISTAYMELSSLRSEDTAVYYCARGQGYTHSWGQGTMVTVSS
VL 2: DIQMTQSPSTLSASVGDRVTITCRASEGIYHWLAWYQQKPGKAPKLLIYKASSLASGVPSRFSGSGSGTEFTLTISSLQPDDFATYYCQQYSNYPPTFGGGTKLEIK
notes: also called QD6/B09 DuetMab; QD6/B09-AlexaFluor647
binds: all assays above

B2: B09-57 IgG (antibody, V domains shown)
VH: B1 VH 2
VL: B1 VL 2
notes: also called B09-GL; anti-cMET antibody
binds: [2] | [4] | [7] | [9] | [12]
